Experimental data reported in the supplement of paper PMC10849652.
This is one part of the list. Residues, ends and D or L forms follow the SMILES beside them. *: point of attachment. Cbz = O=C(OCc1ccccc1)*

The chains behind the UniProt entries cited, without tags or fusion partners. Where a name states a change or a piece, a line headed by the entry shows the natural chain unless it says otherwise.
UniProt P04424, whole entry, looked up: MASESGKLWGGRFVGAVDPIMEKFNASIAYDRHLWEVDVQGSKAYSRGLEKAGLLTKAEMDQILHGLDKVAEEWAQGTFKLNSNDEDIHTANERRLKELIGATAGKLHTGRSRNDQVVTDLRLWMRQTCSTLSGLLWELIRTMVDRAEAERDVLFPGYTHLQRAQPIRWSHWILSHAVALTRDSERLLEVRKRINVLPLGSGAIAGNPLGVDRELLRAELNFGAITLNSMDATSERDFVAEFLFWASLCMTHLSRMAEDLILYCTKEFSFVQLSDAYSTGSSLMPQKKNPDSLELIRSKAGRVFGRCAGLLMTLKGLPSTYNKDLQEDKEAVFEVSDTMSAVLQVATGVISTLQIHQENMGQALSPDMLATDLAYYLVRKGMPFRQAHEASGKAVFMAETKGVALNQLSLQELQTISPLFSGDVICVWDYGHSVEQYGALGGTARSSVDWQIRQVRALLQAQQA
UniProt P15336: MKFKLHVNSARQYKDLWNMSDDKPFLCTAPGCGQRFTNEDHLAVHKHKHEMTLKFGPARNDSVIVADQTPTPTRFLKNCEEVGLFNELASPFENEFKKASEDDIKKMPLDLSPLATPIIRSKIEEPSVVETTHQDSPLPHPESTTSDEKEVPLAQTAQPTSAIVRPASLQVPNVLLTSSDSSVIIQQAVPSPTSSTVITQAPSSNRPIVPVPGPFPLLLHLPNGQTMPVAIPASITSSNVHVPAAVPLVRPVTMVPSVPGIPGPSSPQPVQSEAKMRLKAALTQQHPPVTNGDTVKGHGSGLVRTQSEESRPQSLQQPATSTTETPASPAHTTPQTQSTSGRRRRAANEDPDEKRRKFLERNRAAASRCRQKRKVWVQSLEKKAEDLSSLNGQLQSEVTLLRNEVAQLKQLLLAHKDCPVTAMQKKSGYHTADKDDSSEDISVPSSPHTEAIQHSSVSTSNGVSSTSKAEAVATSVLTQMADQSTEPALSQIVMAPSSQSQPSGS
UniProt O95260: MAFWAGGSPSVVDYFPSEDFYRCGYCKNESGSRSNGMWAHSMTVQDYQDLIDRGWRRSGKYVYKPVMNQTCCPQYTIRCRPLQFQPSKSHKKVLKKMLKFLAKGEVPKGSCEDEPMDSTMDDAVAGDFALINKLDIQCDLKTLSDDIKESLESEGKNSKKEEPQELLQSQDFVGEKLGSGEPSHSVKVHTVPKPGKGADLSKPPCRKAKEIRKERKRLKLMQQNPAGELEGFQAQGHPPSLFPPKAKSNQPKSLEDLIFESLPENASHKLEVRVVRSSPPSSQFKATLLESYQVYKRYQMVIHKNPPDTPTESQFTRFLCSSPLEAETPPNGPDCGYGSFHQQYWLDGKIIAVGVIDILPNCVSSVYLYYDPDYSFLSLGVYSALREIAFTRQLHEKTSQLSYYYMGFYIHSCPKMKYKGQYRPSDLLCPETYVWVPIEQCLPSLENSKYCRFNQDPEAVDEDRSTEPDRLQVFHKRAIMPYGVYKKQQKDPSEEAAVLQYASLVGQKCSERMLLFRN
UniProt Q13315: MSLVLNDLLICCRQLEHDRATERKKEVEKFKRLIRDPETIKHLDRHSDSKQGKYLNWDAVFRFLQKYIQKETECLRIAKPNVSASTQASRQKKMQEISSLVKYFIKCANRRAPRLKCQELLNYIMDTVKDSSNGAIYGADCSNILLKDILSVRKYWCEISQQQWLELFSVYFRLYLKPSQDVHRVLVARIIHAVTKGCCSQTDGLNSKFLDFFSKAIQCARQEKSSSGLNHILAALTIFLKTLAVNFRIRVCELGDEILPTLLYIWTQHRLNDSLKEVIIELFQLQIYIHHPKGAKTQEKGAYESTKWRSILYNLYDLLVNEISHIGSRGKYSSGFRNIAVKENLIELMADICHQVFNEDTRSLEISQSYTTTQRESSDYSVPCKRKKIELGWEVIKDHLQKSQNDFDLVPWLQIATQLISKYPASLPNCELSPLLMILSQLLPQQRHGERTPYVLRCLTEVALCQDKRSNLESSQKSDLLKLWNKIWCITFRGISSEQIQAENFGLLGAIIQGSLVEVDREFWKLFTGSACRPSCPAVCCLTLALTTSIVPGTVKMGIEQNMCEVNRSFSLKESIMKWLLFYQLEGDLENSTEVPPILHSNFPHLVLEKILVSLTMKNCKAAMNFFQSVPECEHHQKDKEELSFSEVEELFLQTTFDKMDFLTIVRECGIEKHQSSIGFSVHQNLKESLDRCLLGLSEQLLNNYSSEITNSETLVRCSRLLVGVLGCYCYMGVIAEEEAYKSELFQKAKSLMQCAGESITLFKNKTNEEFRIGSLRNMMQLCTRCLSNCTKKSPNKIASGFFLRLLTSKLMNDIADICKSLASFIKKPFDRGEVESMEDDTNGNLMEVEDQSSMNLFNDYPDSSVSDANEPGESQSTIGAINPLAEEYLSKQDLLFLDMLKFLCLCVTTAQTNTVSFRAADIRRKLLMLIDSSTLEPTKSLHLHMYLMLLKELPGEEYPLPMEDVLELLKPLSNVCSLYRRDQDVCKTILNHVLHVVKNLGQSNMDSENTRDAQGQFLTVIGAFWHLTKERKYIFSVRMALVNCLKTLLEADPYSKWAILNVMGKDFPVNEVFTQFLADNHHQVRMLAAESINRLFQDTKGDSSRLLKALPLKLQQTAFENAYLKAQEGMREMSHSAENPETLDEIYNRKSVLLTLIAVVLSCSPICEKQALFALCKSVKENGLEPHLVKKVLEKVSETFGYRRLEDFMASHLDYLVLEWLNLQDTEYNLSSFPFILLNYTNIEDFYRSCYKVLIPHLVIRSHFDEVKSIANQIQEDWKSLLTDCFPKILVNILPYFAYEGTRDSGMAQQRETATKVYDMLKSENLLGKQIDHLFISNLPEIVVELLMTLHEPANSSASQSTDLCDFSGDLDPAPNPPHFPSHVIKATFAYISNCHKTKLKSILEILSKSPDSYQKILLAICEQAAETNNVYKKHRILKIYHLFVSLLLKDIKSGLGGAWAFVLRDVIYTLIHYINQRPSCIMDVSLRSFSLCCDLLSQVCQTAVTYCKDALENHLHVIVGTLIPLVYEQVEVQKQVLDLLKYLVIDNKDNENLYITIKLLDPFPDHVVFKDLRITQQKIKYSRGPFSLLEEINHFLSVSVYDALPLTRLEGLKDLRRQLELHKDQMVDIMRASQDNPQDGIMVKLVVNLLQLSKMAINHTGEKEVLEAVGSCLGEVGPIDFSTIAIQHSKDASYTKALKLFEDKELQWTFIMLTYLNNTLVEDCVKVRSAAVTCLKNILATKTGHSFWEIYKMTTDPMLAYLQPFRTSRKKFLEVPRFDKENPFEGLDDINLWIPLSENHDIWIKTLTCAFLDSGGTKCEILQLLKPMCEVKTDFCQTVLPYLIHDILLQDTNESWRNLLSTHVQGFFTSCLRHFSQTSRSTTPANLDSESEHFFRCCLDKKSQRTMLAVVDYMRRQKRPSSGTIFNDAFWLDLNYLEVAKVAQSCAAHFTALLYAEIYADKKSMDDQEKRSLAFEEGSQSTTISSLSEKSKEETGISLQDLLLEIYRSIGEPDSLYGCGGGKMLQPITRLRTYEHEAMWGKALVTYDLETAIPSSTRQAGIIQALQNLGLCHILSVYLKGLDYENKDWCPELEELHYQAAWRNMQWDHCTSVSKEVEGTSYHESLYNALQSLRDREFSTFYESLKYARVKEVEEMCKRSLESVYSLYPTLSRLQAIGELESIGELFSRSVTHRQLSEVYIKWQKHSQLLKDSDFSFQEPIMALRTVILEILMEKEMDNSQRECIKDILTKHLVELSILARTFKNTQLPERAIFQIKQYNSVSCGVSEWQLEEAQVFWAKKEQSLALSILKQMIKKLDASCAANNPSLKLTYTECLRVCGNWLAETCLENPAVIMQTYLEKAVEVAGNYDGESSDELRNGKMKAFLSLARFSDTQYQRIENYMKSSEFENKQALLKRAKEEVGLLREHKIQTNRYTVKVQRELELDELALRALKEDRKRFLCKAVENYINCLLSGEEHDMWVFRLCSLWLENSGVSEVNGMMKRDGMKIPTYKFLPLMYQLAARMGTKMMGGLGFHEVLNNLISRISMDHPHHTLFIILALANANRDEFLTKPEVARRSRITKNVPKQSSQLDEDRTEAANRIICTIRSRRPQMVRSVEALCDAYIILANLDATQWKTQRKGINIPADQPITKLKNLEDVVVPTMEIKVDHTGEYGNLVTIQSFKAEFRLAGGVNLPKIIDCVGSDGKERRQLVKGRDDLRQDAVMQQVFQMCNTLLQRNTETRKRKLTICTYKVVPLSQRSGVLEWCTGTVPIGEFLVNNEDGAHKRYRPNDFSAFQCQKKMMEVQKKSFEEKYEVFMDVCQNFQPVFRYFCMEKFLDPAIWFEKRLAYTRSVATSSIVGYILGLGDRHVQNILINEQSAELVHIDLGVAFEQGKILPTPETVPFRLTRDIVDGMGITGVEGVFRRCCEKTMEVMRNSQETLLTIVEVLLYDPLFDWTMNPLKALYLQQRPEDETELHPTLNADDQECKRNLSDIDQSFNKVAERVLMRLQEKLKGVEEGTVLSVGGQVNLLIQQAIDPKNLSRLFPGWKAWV
UniProt P32121, whole entry, looked up: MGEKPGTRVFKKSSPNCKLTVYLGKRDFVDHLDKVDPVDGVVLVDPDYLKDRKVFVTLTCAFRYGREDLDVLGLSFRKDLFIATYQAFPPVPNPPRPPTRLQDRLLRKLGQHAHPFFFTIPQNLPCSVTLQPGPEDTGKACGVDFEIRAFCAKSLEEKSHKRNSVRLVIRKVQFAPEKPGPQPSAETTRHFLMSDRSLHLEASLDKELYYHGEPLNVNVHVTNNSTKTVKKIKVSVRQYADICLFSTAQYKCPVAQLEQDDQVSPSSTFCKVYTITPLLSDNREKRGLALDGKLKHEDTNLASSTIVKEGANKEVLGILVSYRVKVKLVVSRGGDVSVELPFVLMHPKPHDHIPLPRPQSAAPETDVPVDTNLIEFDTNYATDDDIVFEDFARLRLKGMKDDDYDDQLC
UniProt Q9BZE9, whole entry, looked up: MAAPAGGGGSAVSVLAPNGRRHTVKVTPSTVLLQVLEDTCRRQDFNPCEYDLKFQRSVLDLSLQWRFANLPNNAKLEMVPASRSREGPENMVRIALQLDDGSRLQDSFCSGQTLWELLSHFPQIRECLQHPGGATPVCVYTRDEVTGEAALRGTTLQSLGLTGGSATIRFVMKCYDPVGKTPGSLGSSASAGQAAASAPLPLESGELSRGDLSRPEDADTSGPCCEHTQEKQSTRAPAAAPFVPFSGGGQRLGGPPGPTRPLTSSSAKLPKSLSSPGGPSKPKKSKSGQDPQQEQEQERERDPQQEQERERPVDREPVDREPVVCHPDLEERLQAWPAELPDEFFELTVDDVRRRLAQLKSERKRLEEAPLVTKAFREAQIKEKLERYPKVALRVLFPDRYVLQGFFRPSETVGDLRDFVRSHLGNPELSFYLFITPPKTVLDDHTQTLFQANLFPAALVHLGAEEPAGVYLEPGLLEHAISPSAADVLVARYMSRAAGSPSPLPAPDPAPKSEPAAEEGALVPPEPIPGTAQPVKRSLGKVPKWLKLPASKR
UniProt Q06055: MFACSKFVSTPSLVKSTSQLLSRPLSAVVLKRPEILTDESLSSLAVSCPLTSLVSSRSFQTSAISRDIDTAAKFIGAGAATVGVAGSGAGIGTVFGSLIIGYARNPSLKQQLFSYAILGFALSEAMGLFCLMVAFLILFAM
UniProt O75915: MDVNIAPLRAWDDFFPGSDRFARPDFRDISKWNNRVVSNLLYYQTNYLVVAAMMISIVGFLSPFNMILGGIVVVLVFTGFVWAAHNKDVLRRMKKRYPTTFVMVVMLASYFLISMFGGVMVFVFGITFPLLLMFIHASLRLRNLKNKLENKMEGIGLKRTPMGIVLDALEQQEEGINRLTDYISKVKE
UniProt Q92747, whole entry, looked up: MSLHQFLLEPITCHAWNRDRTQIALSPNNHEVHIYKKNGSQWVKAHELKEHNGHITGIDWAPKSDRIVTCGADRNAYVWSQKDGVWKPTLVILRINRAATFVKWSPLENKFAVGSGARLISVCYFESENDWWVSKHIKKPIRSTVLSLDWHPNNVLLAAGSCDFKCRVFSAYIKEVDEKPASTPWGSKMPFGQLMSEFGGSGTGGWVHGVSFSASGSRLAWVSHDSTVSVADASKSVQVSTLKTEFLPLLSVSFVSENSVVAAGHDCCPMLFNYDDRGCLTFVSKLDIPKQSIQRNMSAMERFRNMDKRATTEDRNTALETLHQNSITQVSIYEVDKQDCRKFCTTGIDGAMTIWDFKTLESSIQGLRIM
UniProt Q9BSB4: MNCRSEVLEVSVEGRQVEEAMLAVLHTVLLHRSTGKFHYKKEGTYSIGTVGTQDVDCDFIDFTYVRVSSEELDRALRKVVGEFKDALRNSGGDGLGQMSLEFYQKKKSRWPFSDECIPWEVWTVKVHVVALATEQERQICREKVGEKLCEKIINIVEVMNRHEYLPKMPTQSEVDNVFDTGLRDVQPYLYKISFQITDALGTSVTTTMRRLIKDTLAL
UniProt O75964: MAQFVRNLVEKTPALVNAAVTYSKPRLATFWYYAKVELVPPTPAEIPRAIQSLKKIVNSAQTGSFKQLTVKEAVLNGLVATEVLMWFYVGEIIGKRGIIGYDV

Legend:
Experiment in all cases: log2 fold change, soluble protein after heating vs DMSO (PISA); higher = thermal stabilisation; K562 cells, 10 uM, 30 min; active = over 0.2 and 3.5 SD of the protein, either way, in both replicates (recomputed)
erlotinib = compound: C#Cc1cccc(Nc2ncnc3cc(OCCOC)c(OCCOC)cc23)c1 [erlotinib]
Outline: (§1)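 Quantification of soluble protein used TMTpro 16plex LC-MS/MS, with channel sums equalised. Samples were the supernatant after 21,000xg for 90 min of pooled aliquots from K562 cells (2×10^6 cells/mL) treated with 10 μM compound for 30 min, heated for 3 min over 48°C-58°C, and extracted in PBS with 0.5% NP-40 at 4°C. Values, from duplicates, describe thermal stability against control samples on a log2 fold-change scale.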

[1] = compound: C/C(=N\NC(=O)C1=CC(=CC=C1)S(=O)(=O)N2CCOCC2)/C3=C(C=CC(=C3)Cl)O
Outline: as §1

[2] = compound: C1=CC(=C(C=C1Cl)C2=NC3=NC=CN=C3C(=N2)NC4=CC=NC=C4)F
Outline: as §1

[3] = compound: C1=CC(=CC=C1C2=NC3=C(N2)C=C(C=C3)C(=O)N)OC4=CC=C(C=C4)Cl
Outline: as §1

[4] = compound: C1=CC2=C(C=CC(=C2)/C=C\3/C(=O)NC(=NCC4=CC=CS4)S3)N=C1
Outline: as §1

[5] = compound: C1=CC2=NC=CN=C2C=C1/C=C/3\C(=O)NC(=O)S3
Outline: as §1

[6] = compound: C1=CC=C(C=C1)C2=NC(=C(N2)C3=CC=NC=C3)C4=CC(=C(C=C4)Cl)O
Outline: as §1

[7] = compound: C1=CC=C2C(=C1)C3=NNC4=CC=CC(=C43)C2=O
Outline: as §1

[8] = compound: C1CCN(C1)C(=O)NC2=CC=CC(=C2)NC3=NC=C(C(=N3)NCCC4=CN=CN4)Br
Outline: as §1

[9] = compound: C1CN(CCC1(CC2=CC=C(C=C2)Cl)N)C3=NC=NC4=C3C=CN4
Outline: as §1

IRAK-1-4 Inhibitor I = compound: C1COCCN1CCN2C3=CC=CC=C3N=C2NC(=O)C4=CC(=CC=C4)[N+](=O)[O-] [IRAK-1-4 Inhibitor I]
Outline: as §1

ibrutinib = compound: C=CC(=O)N1CCC[C@@H](n2nc(-c3ccc(Oc4ccccc4)cc3)c3c(N)ncnc32)C1 [ibrutinib]
Outline: as §1

[10] = compound: CC(=O)c1cnc2ccc(-c3cc(Cl)c(O)c(Cl)c3)nc2c1N[C@H]1CC[C@H](CN(C)C)CC1
Outline: as §1

ralimetinib = compound: CC(C)(C)Cn1c(N)nc2ccc(-c3[nH]c(C(C)(C)C)nc3-c3ccc(F)cc3)nc21 [ralimetinib]
Outline: as §1

[11] = compound: CC(C)(O)CC(=O)NCCn1ccc2ncnc(Nc3ccc(Oc4cccc(C(F)(F)F)c4)c(Cl)c3)c21
Outline: as §1

[12] = compound: CC(C)C1=C2N=C(C=C(N2N=C1)NCC3=CC=CC=C3)NCCCCCCN
Outline: as §1

[13] = compound: CC(C)C[C@@H](C=O)NC(=O)[C@H](CC(C)C)NC(=O)[C@H](CC(C)C)NC(=O)OCc1ccccc1
Outline: as §1

pinometostat = compound: CC(C)N(C[C@H]1O[C@@H](n2cnc3c(N)ncnc32)[C@H](O)[C@@H]1O)[C@H]1C[C@@H](CCc2nc3cc(C(C)(C)C)ccc3[nH]2)C1 [pinometostat]
Outline: as §1

[14] = compound: CC1=C(C(CC(=O)N1)C2=CC=C(C=C2)C(F)(F)F)C(=O)NC3=C(C=C4C(=C3)C=NN4)F
Outline: as §1

[15] = compound: CC1=C(C2=C(C=C1)C(=O)C3=CC=CC=C3N2CCCN)C
Outline: as §1

Measured: log2 fold change

ASL (UniProt P04424)
inactive: erlotinib 0.036 | [1] -0.018 | [2] 0.049 | [3] 0.002 | [4] 0.01 | [5] -0.011 | [6] 0.015 | [7] 0 | [8] -0.002 | [9] 0.044 | IRAK-1-4 Inhibitor I 0.031 | ibrutinib -0.004 | [10] 0.01 | ralimetinib -0.035 | [11] -0.017 | [12] -0.011 | [13] -0.051 | pinometostat 0.007 | [14] -0.027 | [15] 0.022

ATF2 (UniProt P15336)
inactive: erlotinib -0.031 | [1] -0.194 | [2] 0.098 | [3] -0.027 | [4] 0.055 | [5] 0.025 | [6] 0.018 | [7] -0.005 | [8] -0.066 | [9] -0.012 | IRAK-1-4 Inhibitor I 0.107 | ibrutinib 0.036 | [10] 0.036 | ralimetinib 0.075 | [11] -0.119 | [12] 0.093 | [13] -0.021 | pinometostat 0.145 | [14] 0.09 | [15] 0.288

ATE1 isoform 2 (UniProt O95260)
inactive: erlotinib -0.059 | [1] 0.034 | [2] 0.007 | [3] 0.024 | [4] 0.03 | [5] 0.037 | [6] -0.076 | [7] 0.03 | [8] 0.021 | [9] 0.049 | IRAK-1-4 Inhibitor I 0.068 | ibrutinib -0.081 | [10] 0 | ralimetinib -0.037 | [11] 0.039 | [12] 0.013 | [13] 0.015 | pinometostat -0.103 | [14] -0.029 | [15] -0.034

ATM (UniProt Q13315)
inactive: erlotinib 0.013 | [1] 0.033 | [2] 0.05 | [3] 0.052 | [4] 0.066 | [5] 0.1 | [6] 0.006 | [7] -0.03 | [8] -0.015 | [9] 0.012 | IRAK-1-4 Inhibitor I 0.039 | ibrutinib 0.034 | [10] 0.119 | ralimetinib -0.036 | [11] -0.08 | [12] -0.048 | [13] 0.028 | pinometostat 0.056 | [14] -0.042 | [15] 0.105

ARPC4 isoform 3 (UniProt P59998)
inactive: erlotinib 0.011 | [1] 0.012 | [2] 0.043 | [3] -0.115 | [4] -0.009 | [5] 0.019 | [6] 0.014 | [7] 0.042 | [8] -0.005 | [9] -0.049 | IRAK-1-4 Inhibitor I 0.001 | ibrutinib -0.028 | [10] 0.008 | ralimetinib -0.043 | [11] -0.01 | [12] 0.08 | [13] -0.024 | pinometostat -0.078 | [14] -0.011 | [15] 0.034

ARL15 (UniProt Q9NXU5)
inactive: erlotinib 0.039 | [1] 0.079 | [2] 0.08 | [3] -0.036 | [4] -0.01 | [5] 0.005 | [6] 0.057 | [7] 0.03 | [8] -0.14 | [9] 0.075 | IRAK-1-4 Inhibitor I 0.075 | ibrutinib 0.041 | [10] 0.012 | ralimetinib -0.06 | [11] -0.045 | [12] 0.013 | [13] -0.022 | pinometostat -0.008 | [14] -0.001 | [15] 0.101

ARL13B (UniProt Q3SXY8)
inactive: erlotinib -0.033 | [1] -0.045 | [2] -0.082 | [3] -0.058 | [4] -0.069 | [5] 0.026 | [6] 0.004 | [7] 0.093 | [8] -0.156 | [9] 0.078 | IRAK-1-4 Inhibitor I 0.031 | ibrutinib 0.033 | [10] 0.033 | ralimetinib 0.011 | [11] 0.057 | [12] 0.078 | [13] 0.06 | pinometostat 0.04 | [14] 0.075 | [15] 0.07

ARRB2 isoform 4 (UniProt P32121)
inactive: erlotinib 0.032 | [1] -0.008 | [2] 0.012 | [3] -0.116 | [4] 0.138 | [5] -0.004 | [6] -0.089 | [7] -0.003 | [8] -0.01 | [9] 0.081 | IRAK-1-4 Inhibitor I -0.008 | ibrutinib 0.052 | [10] -0.021 | ralimetinib -0.13 | [11] 0.014 | [12] 0.044 | [13] 0.018 | pinometostat 0.007 | [14] -0.052 | [15] 0.094

ASPSCR1 isoform 2 (UniProt Q9BZE9)
inactive: erlotinib 0.001 | [1] 0.096 | [2] -0.003 | [3] 0.012 | [4] 0.082 | [5] -0.015 | [6] -0.028 | [7] 0.001 | [8] -0.034 | [9] -0.003 | IRAK-1-4 Inhibitor I 0.01 | ibrutinib 0.017 | [10] -0.016 | ralimetinib -0.02 | [11] -0.062 | [12] -0.002 | [13] 0.061 | pinometostat 0.054 | [14] -0.036 | [15] -0.022

ATP1A3 isoform 3 (UniProt P13637)
inactive: erlotinib 0.062 | [1] -0.037 | [2] -0.045 | [3] -0.036 | [4] -0.047 | [5] 0.015 | [6] -0.011 | [7] -0.024 | [8] 0.028 | [9] 0.081 | IRAK-1-4 Inhibitor I 0.023 | ibrutinib -0.008 | [10] 0.011 | ralimetinib -0.013 | [11] -0.011 | [12] 0.185 | [13] -0.03 | pinometostat -0.018 | [14] -0.027 | [15] -0.025

ATP5MC2 isoform 2 (UniProt Q06055)
inactive: erlotinib 0.035 | [1] -0.113 | [2] -0.021 | [3] 0.022 | [4] 0.017 | [5] 0.048 | [6] 0.059 | [7] 0.031 | [8] 0.008 | [9] 0.056 | IRAK-1-4 Inhibitor I 0.078 | ibrutinib -0.032 | [10] -0.086 | ralimetinib -0.094 | [11] -0.109 | [12] -0.014 | [13] -0.157 | pinometostat 0.053 | [14] -0.084 | [15] -0.005

ARL6IP5 (UniProt O75915)
inactive: erlotinib -0.013 | [1] -0.031 | [2] 0.04 | [3] 0.023 | [4] 0.014 | [5] 0.043 | [6] -0.029 | [7] -0.032 | [8] 0.026 | [9] 0.061 | IRAK-1-4 Inhibitor I -0.002 | ibrutinib -0.043 | [10] 0.019 | ralimetinib -0.06 | [11] 0.006 | [12] -0.144 | [13] 0.004 | pinometostat -0.042 | [14] -0.029 | [15] -0.01

Random excerpt: two entries already listed, in no set order.
ATP5MC2 isoform 2 (UniProt Q06055)
inactive: erlotinib 0.035 | [1] -0.113 | [2] -0.021 | [3] 0.022 | [4] 0.017 | [5] 0.048 | [6] 0.059 | [7] 0.031 | [8] 0.008 | [9] 0.056 | IRAK-1-4 Inhibitor I 0.078 | ibrutinib -0.032 | [10] -0.086 | ralimetinib -0.094 | [11] -0.109 | [12] -0.014 | [13] -0.157 | pinometostat 0.053 | [14] -0.084 | [15] -0.005

ARL6IP5 (UniProt O75915)
inactive: erlotinib -0.013 | [1] -0.031 | [2] 0.04 | [3] 0.023 | [4] 0.014 | [5] 0.043 | [6] -0.029 | [7] -0.032 | [8] 0.026 | [9] 0.061 | IRAK-1-4 Inhibitor I -0.002 | ibrutinib -0.043 | [10] 0.019 | ralimetinib -0.06 | [11] 0.006 | [12] -0.144 | [13] 0.004 | pinometostat -0.042 | [14] -0.029 | [15] -0.01

Continuation.

ARPC1B (UniProt O15143)
inactive: erlotinib -0.018 | [1] 0.104 | [2] 0.052 | [3] -0.045 | [4] -0.143 | [5] -0.018 | [6] 0.099 | [7] 0.041 | [8] -0.048 | [9] 0.028 | IRAK-1-4 Inhibitor I -0.035 | ibrutinib 0.023 | [10] 0.087 | ralimetinib -0.008 | [11] 0.021 | [12] 0.093 | [13] 0 | pinometostat -0.053 | [14] 0.003 | [15] 0.007

ARPC1A (UniProt Q92747)
inactive: erlotinib -0.027 | [1] 0.02 | [2] -0.015 | [3] -0.018 | [4] 0.006 | [5] 0.049 | [6] 0.019 | [7] -0.008 | [8] -0.013 | [9] -0.005 | IRAK-1-4 Inhibitor I 0.067 | ibrutinib -0.02 | [10] 0.074 | ralimetinib -0.028 | [11] 0.031 | [12] 0.156 | [13] 0.026 | pinometostat 0.004 | [14] -0.065 | [15] 0.096

ATG101 (UniProt Q9BSB4)
inactive: erlotinib -0.041 | [1] 0.04 | [2] 0.036 | [3] 0.016 | [4] -0.011 | [5] -0.055 | [6] -0.012 | [7] -0.048 | [8] 0.084 | [9] -0.257 | IRAK-1-4 Inhibitor I 0.024 | ibrutinib -0.067 | [10] -0.025 | ralimetinib -0.045 | [11] -0.015 | [12] 0.025 | [13] 0.015 | pinometostat -0.023 | [14] 0.016 | [15] -0.188

ATP5MG (UniProt O75964)
inactive: erlotinib -0.021 | [1] 0.053 | [2] 0.137 | [3] 0.031 | [4] 0.179 | [5] -0.009 | [6] -0.109 | [7] -0.054 | [8] -0.037 | [9] 0.047 | IRAK-1-4 Inhibitor I 0 | ibrutinib 0.03 | [10] 0.038 | ralimetinib -0.18 | [11] -0.016 | [12] 0.042 | [13] 0.029 | pinometostat 0.052 | [14] 0.009 | [15] 0.069
